Percent effect of library compounds

Data taken from ChEMBL document CHEMBL3988442, “University of Dundee, Small-Polar-MMV Screening Library” (2021).

The filed quantity is “Percent Effect” (%).
The controls that fix the scale are not given in the record; negative values are as filed.
This is an unselected part of the compounds tested.
Two or more numbers in one place are separate tests of the same structure; such repeats can differ widely.

Mtb glucose medium: 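Growth of Mycobacterium tuberculosis over 3 days (7H9 medium with glucose and tyloxapol); the read-out is not stated. Concentration: 50 µM. Higher reads as more growth inhibition (inferred: compounds with an IC50 in retests scored well above the rest). Size under these conditions: about 69,000 compounds, about 760 of them at 50% or above in at least one test.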
Mtb cholesterol medium: 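Phenotypic screen: M. tuberculosis growth, cholesterol and DPPC medium, 4 days; the read-out is not stated. Tested at 50 µM. Higher reads as more growth inhibition (inferred: compounds with an IC50 in retests scored well above the rest). Of about 69,000 compounds tested this way, about 370 (0.54%) reached 50% or more in at least one test.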

structure,Mtb glucose medium,Mtb cholesterol medium
CC(C)Cc1noc(CN(C)c2cc(C(C)C)nc3ccnn23)n1,19.73,8.949
CC(=O)N1CCCC1c1ccc(CN2CCOCC2)cn1 (centres unmarked),13.11,17.76 and 18.81
Cc1ncc(CNC(=O)Nc2cc(C(F)(F)F)c[nH]c2=O)s1,-0.03988 and 13.14,-3.916
COc1ccccc1Oc1ncccc1CNC(=O)[C@@H](N)[C@@H](C)O,8.154,-24.25
CC(C)c1ocnc1C(=O)N1CCCC(c2ccn[nH]2)C1 (centres unmarked),16.3,3.031
CNC(=O)[C@@H]1C[C@@H](NC(=O)Cc2cccs2)CN1C1CCOCC1,-23.75,-1.094 and -8.388
Cc1cc(CN2CCN(C(=O)NC(C)c3cccnc3)CC2)no1 (centres unmarked),-2.03,-15.27
O=C(CC1CC1)N1Cc2nccn2CC(CN2CCCC2)C1 (centres unmarked),-27.11,-33.83
COCC(=O)N1CCC2(CC1)COC(COCc1ccccn1)C2.O=C(O)C(F)(F)F (centres unmarked),-14.82 and -7.655,-4.967 and -4.777
COc1cccc(NC(=O)c2nc3ccccc3n(C)c2=O)c1,53.92,28.17
O=C(O)C(F)(F)F.[H][C@@]12C[C@@H](c3nc(C4CC4)cs3)O[C@]1([H])CN(c1ncc(F)cn1)C2,59.9,47
CN(C)C(=O)n1c(C(=O)NC(C)(C)CO)cc2c1c1ccccc1n2C,-9.243,-6.454
Cc1ncc(CN2CCCC2)c2cc(C(=O)c3ccc(Br)cc3)oc12.Cl,48.18,39.24
COc1ccc2nnc(CCC(=O)Nc3nc4c(s3)CCC4)n2n1,0.4034,-5.016
O=C(O)C(F)(F)F.[H][C@]12CN(Cc3csc(C)n3)C(=O)[C@@]1([H])CN(c1ncc(C)cn1)C2,7.665 and 9.133,1.798
Cc1nc(C2CCCN(C(=O)c3ccncc3)C2)c2sccn12 (centres unmarked),17.61,-38.37
Clc1ccc(CN(CCN2CCOCC2)Cc2cccnc2)cc1Cl,-23.29,-16.11
Cc1cnn(CCC(=O)N2CCCN(c3cccnn3)CC2)c1,-23.09,-12.15
COCC1c2nnn(CC3CC3)c2CCN1C(=O)c1cccc(F)c1 (centres unmarked),7.601,-3.456
CC(NCC(N)=O)c1c(F)cccc1Cl (centres unmarked),-17.64,-5.03
O=C1CC(N(C(=O)c2ccc3[nH]c4c(c3c2)CCCC4)C2CC2)C(=O)N1 (centres unmarked),19.61,8.29
COCc1cncc2c1CCN(Cc1cnn(C)c1)C2.O=C(O)C(F)(F)F.O=C(O)C(F)(F)F,-36.32 and -9.915,-30.59
CC(C)(C)Nc1c(C2CCCN(C(=O)C3CC3)C2)nc2ccccn12.Cl (centres unmarked),-17.94,-7.654 and -3.288
CS(=O)(=O)c1ccc(-c2cc(C3CC3)c(C#N)c(N)n2)cc1,7.491,-1.04
CCSc1nsc(NC(=O)COc2ccc3c(c2)OCO3)n1,59.61 and 15.4,42.32
CCc1nnc2n1CCN(C(=O)CCc1ccc3c(c1)OCO3)C2,-3.838,-14.61
Cc1cnc(N2CCC3(CCCN(c4ncc(F)cn4)C3)C2)nc1 (centres unmarked),-9.748,14.47
CC(=O)NC(=O)C1(CCCc2ccncc2)CCN1 (centres unmarked),-26.86,-18.88
Cc1cc(C)n(CC2CCCN2CCCS(N)(=O)=O)n1 (centres unmarked),-1.942,-21.31
[H][C@@]12CN(Cc3ccc(F)c(F)c3)C[C@]1([H])OCC(=O)N2CC(N)=O,14.16 and -2.616,-3.821
O=C(O)C(F)(F)F.[H][C@@]12CCN(CC3CC3)[C@@]1([H])CCN2C(=O)c1ccc(C#N)cc1,-5.223,-15.08
CC(C)OCCCNC(=O)CN1CCN(c2nccs2)C(C)C1 (centres unmarked),-57.93,-40.51
O=C(CCn1cncn1)NC1CCS(=O)(=O)C1 (centres unmarked),-32.98,-12.99
CC(C)(C)SCC(=O)NC(C)(C(N)=O)c1cccc(Cl)c1 (centres unmarked),0.5334,-5.826
COc1ccc(Br)c(C(=O)NCC2CCN(S(=O)(=O)C3CC3)CC2)c1,-11.44 and -4.187,-21.92
CS(=O)(=O)N1CCC(C(=O)N2CCC(Cn3cccn3)CC2)CC1,10.64,-22.27
O=C(O)C(F)(F)F.[H][C@@]12CN(Cc3ccco3)CCO[C@]1([H])CN(C(=O)c1cocn1)C2,-16.34 and -7.182,-2.78
[H][C@@]12CS(=O)(=O)C[C@]1([H])N(Cc1nc3ccccc3[nH]1)CCN2C,-12.18,-13.29
CC(C)(C)C1CC(=O)Nc2c1cnn2Cc1ccco1 (centres unmarked),20.59,-4.759
Cc1ccc(C(=O)Nc2ccc(S(=O)(=O)/N=C3\CCCN3C)cc2)s1,-13.15,-23.95

Some entries from above, unchanged:

COc1ccccc1Oc1ncccc1CNC(=O)[C@@H](N)[C@@H](C)O gave Mtb glucose medium: 8.154%; Mtb cholesterol medium: -24.25%.
COCC1c2nnn(CC3CC3)c2CCN1C(=O)c1cccc(F)c1 (centres unmarked) gave Mtb glucose medium: 7.601%; Mtb cholesterol medium: -3.456%.
CC(C)Cc1noc(CN(C)c2cc(C(C)C)nc3ccnn23)n1 gave Mtb glucose medium: 19.73%; Mtb cholesterol medium: 8.949%.
COc1cccc(NC(=O)c2nc3ccccc3n(C)c2=O)c1 gave Mtb glucose medium: 53.92%; Mtb cholesterol medium: 28.17%.